In publication PMC10112894:
Results are given in words; binding and its absence hold for the method and conditions named. In cells and extracts the contact can be indirect. Some results given as binding are weak or reduced against the parent protein; the word gives no strength. Sequences can lack the tags named with a protein.

How the values were obtained:
ASNA-1::GFP (C. elegans) [1] = biological target: T1, ASNA-1::GFP (C. elegans) (UniProt P30632); assay: condition: only the two proteins expressed in separate tissues (neurons and body wall muscle), so that they meet only after lysis; co-IP; control for binding after lysis: ASNA-1::GFP under a pan-neuronal promoter and 3xFlag::ENPL-1 under a body wall muscle promoter (separate tissues of the same worms); anti-GFP beads, western blot
T1 sequence: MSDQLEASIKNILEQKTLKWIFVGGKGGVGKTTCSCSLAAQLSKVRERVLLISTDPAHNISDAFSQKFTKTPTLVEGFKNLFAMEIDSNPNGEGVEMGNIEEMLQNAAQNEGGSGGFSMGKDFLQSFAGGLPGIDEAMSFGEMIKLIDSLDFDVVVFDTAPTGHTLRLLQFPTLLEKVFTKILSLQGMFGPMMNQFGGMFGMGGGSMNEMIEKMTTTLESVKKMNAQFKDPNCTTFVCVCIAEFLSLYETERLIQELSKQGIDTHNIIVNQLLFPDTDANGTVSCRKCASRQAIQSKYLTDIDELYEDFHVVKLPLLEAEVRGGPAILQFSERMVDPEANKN

ASNA-1::GFP (C. elegans) [2] = biological target: T1, ASNA-1::GFP (C. elegans); assay: co-IP; anti-GFP magnetic beads (ChromoTek GFP-Trap) with 800-1000 µg lysate of adult worms co-expressing both tagged proteins, 1 h at 4°C; lysis in 10 mM Tris-HCl pH 7.4, 150 mM NaCl, 5 mM EDTA, 0.5% NP40; western blot. Also done with ablated ASI neurons (oyIs84), in daf-28(tm2308), kpc-1(gk8), ins-4(tm3620), unc-31(e928) and sod-2(gk257) mutants, and after 5 mM H2O2 for 30 min

binding (ASNA-1::GFP (C. elegans) [1]): no binding | binding (ASNA-1::GFP (C. elegans) [2]): binds
B1: 3xFlag::ENPL-1 (protein, UniProt Q22235 24-760)
chain: EDEIEDAPKETKEETREEDSIKLDGLSVSQIKELRSKAEKHEFQAEVNRMMKLIINSLYRNKEIFLRELISNASDALDKIRLLSLTDPEQLRETEEMSVKIKADRENRLLHITDTGVGMTRQDLINNLGTIARSGTSEFLSKLMDTATSSDQQQDLIGQFGVGFYAAFLVADRVVVTTKNNDDDQYIWESDSASFTISKDPRGNTLKRGTQITLYLKEEAADFLEPDTLKNLVHKYSQFINFDIFLWQSKTEMVEEAVEEEPATTEDGAVEEEKEEKKTKKVEKTTWDWEKVNNVKPIWMRKPNQVEEDEYKQFYKSITKDSEEPLSHVHFSAEGEVSFRSILYVPKKSPNDMFQNYGKVIENIKLYVRRVFITDDFADMLPKYLSFIRGIVDSDDLPLNVSRENLQQHKLLKVIKKKLVRKVLDMLKKLDGAQFDDFWSEFSTNIKLGVMEDPSNRMRLAKLLRFQSSNDADKTTTLAAYVERMKEKQDAIYYMAGTSRKEVETSPFVERLIAKGYEVLFLTEAVDEYCIQAMPEYESKKFQNVAKEGVTIDDGEKAKEAHKGLEEEFKPLTDWLKETALKDLIEKAVVSQRLVKSPSALVASSYGWSGNMERIMKSQAYAKAKDPTQDFYATQKKTFEINPRHPVIKELLKRVTASEEDTTAASTAKLLFETATLRSGFSLQDQVGFADRIEAVLRQSLDVSQDAQVETEQHIEEAEPEPEAAEETTIEEEHSEL
